The inconclusive results got no clear call from the source; some entries with a clear call stand among them for comparison. Active and inactive are the calls of the source.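 How the source made its calls: active means compounds whose fitted AC50 for signal loss is at most twice the top valid dose tested; inconclusive means flat curve with 30 to 70% inhibition, or poor fit; inactive means the rest.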
Biological target: Leucyl-cystinyl aminopeptidase (Mus musculus) (UniProt Q8C129)
Assay: inhibition of mouse IRAP aminopeptidase activity – biochemical, Leu-AMC fluorescence, cherry-picked samples, set 2, selectivity assay for ERAP1 modulator project, dose response (AID 743340)
Settings: purified IRAP, Leu-AMC cleavage fluorescence, 1 h; at 11 µM (top of the series) unless noted

The chains behind the UniProt entries cited, without tags or fusion partners.
UniProt Q8C129, whole entry, looked up: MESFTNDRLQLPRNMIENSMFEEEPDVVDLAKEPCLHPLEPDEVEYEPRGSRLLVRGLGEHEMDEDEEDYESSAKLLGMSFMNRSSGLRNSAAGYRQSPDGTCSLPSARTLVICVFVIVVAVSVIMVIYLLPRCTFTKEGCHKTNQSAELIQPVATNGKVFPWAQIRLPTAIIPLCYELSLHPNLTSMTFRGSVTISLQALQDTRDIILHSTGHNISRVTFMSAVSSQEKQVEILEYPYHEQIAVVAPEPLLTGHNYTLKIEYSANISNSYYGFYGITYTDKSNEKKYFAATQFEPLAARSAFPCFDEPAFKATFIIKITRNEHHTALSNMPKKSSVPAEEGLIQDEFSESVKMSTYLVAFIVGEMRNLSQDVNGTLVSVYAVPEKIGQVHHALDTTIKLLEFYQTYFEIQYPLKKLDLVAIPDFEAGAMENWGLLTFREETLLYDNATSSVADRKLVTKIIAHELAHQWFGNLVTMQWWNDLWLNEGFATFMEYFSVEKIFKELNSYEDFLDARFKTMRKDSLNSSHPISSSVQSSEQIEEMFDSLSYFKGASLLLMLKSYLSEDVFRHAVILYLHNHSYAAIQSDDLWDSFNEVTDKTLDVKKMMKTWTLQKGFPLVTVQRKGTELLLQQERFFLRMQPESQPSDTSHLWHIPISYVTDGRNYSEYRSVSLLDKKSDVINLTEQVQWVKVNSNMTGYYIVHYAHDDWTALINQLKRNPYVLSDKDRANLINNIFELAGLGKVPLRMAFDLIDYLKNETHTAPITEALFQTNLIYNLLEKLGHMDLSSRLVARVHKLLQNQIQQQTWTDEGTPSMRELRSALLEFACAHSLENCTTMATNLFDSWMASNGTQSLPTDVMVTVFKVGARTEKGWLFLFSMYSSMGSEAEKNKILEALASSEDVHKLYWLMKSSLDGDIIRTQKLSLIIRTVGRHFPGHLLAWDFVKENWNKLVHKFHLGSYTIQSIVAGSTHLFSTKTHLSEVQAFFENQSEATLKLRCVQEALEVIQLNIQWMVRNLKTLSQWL

Compound | activity change, negative = inhibition
COc1ccc(CN(C)C[C@@H]2OCCCC[C@@H](C)Oc3ccc(NS(=O)(=O)c4cccs4)cc3C(=O)N([C@@H](C)CO)C[C@H]2C)cc1 | inactive: -1.66%
C[C@@H]1CCCCO[C@@H](CN(C)Cc2ccc(C(=O)O)cc2)[C@H](C)CN([C@@H](C)CO)C(=O)c2cc(NS(=O)(=O)c3ccc(Cl)cc3)ccc2O1 | inactive: -3.97%
COc1cc2cc(C(=O)N3CCN(Cc4ccc5c(c4)OCO5)CC3)c(=O)oc2cc1OC | inconclusive: 253% [at 5.6 µM]
C[C@@H]1CCCCO[C@@H](CN(C)Cc2ccc3c(c2)OCO3)[C@@H](C)CN([C@@H](C)CO)C(=O)c2cc(NS(=O)(=O)c3ccccc3)ccc2O1 | inactive: 7.88% [at 5.6 µM]
O=C(C[C@H]1CC[C@@H]2[C@H](COC[C@@H](O)CN2C(=O)Nc2cccc(Cl)c2)O1)N1CCCCC1 | inactive: 31.7%
COc1ccc(CN(C)C[C@@H]2OCCCC[C@H](C)Oc3ccc(NS(=O)(=O)c4cccs4)cc3C(=O)N([C@@H](C)CO)C[C@@H]2C)cc1 | inactive: 10.9%
Cc1cc(=O)oc2c(CN3CCN(C)CC3)c(O)c(Cl)cc12 | inactive: 15%
C[C@@H]1CCCCO[C@@H](CN(C)Cc2ccc(C(=O)O)cc2)[C@@H](C)CN([C@H](C)CO)C(=O)c2cc(NC(=O)Nc3cccc4ccccc34)ccc2O1 | inactive: -5.32%
COc1ccc(CN(C)C[C@H]2OCCCC[C@@H](C)Oc3ccc(NS(=O)(=O)c4cccs4)cc3C(=O)N([C@H](C)CO)C[C@H]2C)cc1 | inactive: 10%
O=C(Nc1ccc(C(F)(F)F)cc1)N1[C@@H]2CNC[C@H]1C2c1ccc(-c2ccncc2)cc1 (some centres undefined) | inactive: 4.27%
COc1ccc(CN(C)C[C@@H]2OCCCC[C@@H](C)Oc3ccc(NS(=O)(=O)c4cccs4)cc3C(=O)N([C@H](C)CO)C[C@H]2C)cc1 | inactive: 3.48%
C[C@H](CO)N1C[C@H](C)[C@H](CN(C)CC2CCCCC2)Oc2c(NC(=O)Nc3ccc4c(c3)OCO4)cccc2C1=O | inactive: -3.26%
C[C@H](CO)N1C[C@H](C)[C@H](CN(C)Cc2ccncc2)Oc2c(NC(=O)Nc3ccc(C(F)(F)F)cc3)cccc2C1=O | inactive: 10.6%
C[C@@H]1CCCCO[C@@H](CN(C)C)[C@@H](C)CN([C@@H](C)CO)C(=O)c2cc(NS(=O)(=O)c3ccc(Cl)cc3)ccc2O1 | inactive: -6.93%

Retrieved by compound from the entries so far, 2 records:
Compound | activity change, negative = inhibition
C[C@@H]1CCCCO[C@@H](CN(C)C)[C@@H](C)CN([C@@H](C)CO)C(=O)c2cc(NS(=O)(=O)c3ccc(Cl)cc3)ccc2O1 | inactive: -6.93%
C[C@H](CO)N1C[C@H](C)[C@H](CN(C)Cc2ccncc2)Oc2c(NC(=O)Nc3ccc(C(F)(F)F)cc3)cccc2C1=O | inactive: 10.6%

Reference: PubChem BioAssay AID743340 (Broad Institute, 2014)
